No constants are given. Whether binding was seen depends on the method and setting. In cells and extracts the contact can be indirect. Some results given as binding are weak or reduced against the parent protein; the word gives no strength.

This experiment concerns the target T1, STN1-YCE (Arabidopsis thaliana) (UniProt Q9LMK5).
T1 sequence: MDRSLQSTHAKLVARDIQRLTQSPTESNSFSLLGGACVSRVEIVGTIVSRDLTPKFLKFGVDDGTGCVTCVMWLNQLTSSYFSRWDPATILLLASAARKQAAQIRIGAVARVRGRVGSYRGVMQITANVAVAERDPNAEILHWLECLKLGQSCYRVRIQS
Kind of experiment: split reporter.

B1: G100E-YNE (protein, UniProt Q6NME7 1-127)
chain: MAKSQIEPGVPITLQELYPSSLFYKEGVSLRVTAMLRGYSVETAIGVIEDGGRSLKINTQNIRDVSFRVGSIYQFIGELHIEQPNNEAILQARTGRNVDEIDMNLYRKTIELLRQFLKEEDNSNMVE
With B1, the binding entry is listed as “binds”.

B2: TEN1-YNE (protein, UniProt Q6NME7 1-127)
chain: MAKSQIEPGVPITLQELYPSSLFYKEGVSLRVTAMLRGYSVETAIGVIEDGGRSLKINTQNIRDVSFRVGSIYQFIGELHIEQPNNEAILQARTGRNVDGIDMNLYRKTIELLRQFLKEEDNSNMVE
With B2, the binding entry is “binds”.

The values are drawn from publication doi:10.1101/2021.10.25.465752.
